Assay results: patent US20170202783A1, “Amphiphilic Peptide Nanoparticles for Use as Hydrophobic Drug Carriers and Antibacterial Agents” (Northeastern University, priority 2014, published 2017)
Part of at least one peptide drawing is inferred or uncertain, most often the ends. Where a SMILES comes first, the peptide text is derived from it. The star is where a group is joined. Stearoyl = CCCCCCCCCCCCCCCCCC(=O)*

Experiments:
[1] = Zeta potential measurement (ZS90 Nanosizer); type: physicochemical; conditions: 0.4 mg/mL in deionized water, room temperature
Experimental: The zeta potential of the nanoparticles was determined using 1 mL of each sample, each measured for ten preparations in triplicate.

S. aureus = S. aureus growth kinetics (turbidity, OD 600 nm); type: cell-based, Staphylococcus aureus; conditions: initial 10^5 CFU/ml
[2] = TEM morphology and size of amphiphilic peptide nanoparticles; type: physicochemical

CCCCCCCCCCCCCCCCCC(=O)NCC(=O)N[C@@H](CCCNC(=N)N)C(=O)N[C@@H](CCCNC(=N)N)C(=O)N[C@@H](CCCNC(=N)N)C(=O)N[C@@H](CCCNC(=N)N)C(=O)N[C@@H](CCCNC(=N)N)C(=O)N[C@@H](CCCNC(=N)N)C(=O)N[C@@H](CCCNC(=N)N)C(=O)N[C@@H](CCCNC(=N)N)C(=O)NCC(=O)N[C@@H](CC(=O)O)C(=O)N[C@@H](CO)C(=O)O [pure C18GR7RGDS APNPs] (Stearoyl-GRRRRRRRRGDS-OH)
average zeta potential [1]: +59±3.15 mV | concentration at which increase in lag time to exponential growth is particularly significant (S. aureus): ≥ 12 µM | lowest concentration showing inhibitory effects on growth (S. aureus; decreased steady state turbidity or increased lag time): 2 µM | diameter range of nanoparticles ([2]; TEM, negative stain): 10-20 nm | mean/average diameter of nanoparticles ([2]; TEM, negative stain): 15.6 nm | self-assembly (TEM morphology) ([2]; neutral pH in water): nanospherical aggregates formed | self-assembly (TEM morphology) ([2]; pH 2 and 4, acetic acid): did not self-assemble into nanospheres | self-assembly (TEM morphology) ([2]; pH 6 in acetic acid solution): could still be observed
